Reference: publication PMC5297781
Results are given in words; binding and its absence hold for the method and conditions named. For some assays here: Binding seen in cells or lysates may run through a third protein. Some entries that bind do so weakly or less than the wild type. For some assays here: Sequences can lack the tags named with a protein. Each block holds one binder with its values, some of them ahead of it.

Sequences of proteins named here, by UniProt entry; tags and fusion partners are left off. Residues count along the entry.
UniProt O08808, residues 73-370: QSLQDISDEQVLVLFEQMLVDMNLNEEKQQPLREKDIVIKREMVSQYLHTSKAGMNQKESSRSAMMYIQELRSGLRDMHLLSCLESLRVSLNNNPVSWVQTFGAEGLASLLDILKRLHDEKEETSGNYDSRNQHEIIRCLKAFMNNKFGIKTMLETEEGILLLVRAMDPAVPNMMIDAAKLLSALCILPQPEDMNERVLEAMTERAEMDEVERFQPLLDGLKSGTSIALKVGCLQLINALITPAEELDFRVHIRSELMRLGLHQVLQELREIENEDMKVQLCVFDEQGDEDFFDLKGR

Legend:
[1] = biological target: GST-mDia1-G-DID (73–370 aa) (UniProt O08808); assay: pull-down; GST-mDia1-G-DID on glutathione-Sepharose beads incubated with thrombin-released Rif loaded with GTP (compared with GDP), 4 °C, 1 h; washed three times with lysis buffer; immunoblot with anti-Rif; also with HEK293 cell lysate added; both purified
[2] = biological target: GST-mDia1-G-DID (73–370 aa) (UniProt O08808); assay: pull-down; Rif activation assay: GST-mDia1-G-DID beads with lysate of serum-starved HeLa cells, treated or not with EGF, LPA, S1P, serum or inhibitors of p38 MAPK, PI3K or p42/44 MAPK; immunoblot with anti-Rif; only the target purified

binding [1]: binds
B1: Rif (1–195 aa), released from GST-Rif by thrombin (domain or fragment, UniProt Q9HBH0 1-195)
chain: MDAPGALAQTAAPGPGRKELKIVIVGDGGCGKTSLLMVYSQGSFPEHYAPSVFEKYTASVTVGSKEVTLNLYDTAGQEDYDRLRPLSYQNTHLVLICYDVMNPTSYDNVLIKWFPEVTHFCRGIPMVLIGCKTDLRKDKEQLRKLRAAQLEPITYMQGLSACEQIRAALYLECSAKFRENVEDVFREAAKVALSA

binding [2]: binds
B2: endogenous Rif in HeLa cell lysate (protein, UniProt Q9HBH0 1-211)
chain: MDAPGALAQTAAPGPGRKELKIVIVGDGGCGKTSLLMVYSQGSFPEHYAPSVFEKYTASVTVGSKEVTLNLYDTAGQEDYDRLRPLSYQNTHLVLICYDVMNPTSYDNVLIKWFPEVTHFCRGIPMVLIGCKTDLRKDKEQLRKLRAAQLEPITYMQGLSACEQIRAALYLECSAKFRENVEDVFREAAKVALSALKKAQRQKKRRLCLLL
